# ± gives the standard deviation of the averaged measurements. The entries are a selection whose mix differs from that of the whole data set.
# The chains behind the UniProt entries cited, without tags or fusion partners. Where a name states a change or a piece, a line headed by the entry shows the natural chain unless it says otherwise.
# UniProt Q9NTJ3, whole entry: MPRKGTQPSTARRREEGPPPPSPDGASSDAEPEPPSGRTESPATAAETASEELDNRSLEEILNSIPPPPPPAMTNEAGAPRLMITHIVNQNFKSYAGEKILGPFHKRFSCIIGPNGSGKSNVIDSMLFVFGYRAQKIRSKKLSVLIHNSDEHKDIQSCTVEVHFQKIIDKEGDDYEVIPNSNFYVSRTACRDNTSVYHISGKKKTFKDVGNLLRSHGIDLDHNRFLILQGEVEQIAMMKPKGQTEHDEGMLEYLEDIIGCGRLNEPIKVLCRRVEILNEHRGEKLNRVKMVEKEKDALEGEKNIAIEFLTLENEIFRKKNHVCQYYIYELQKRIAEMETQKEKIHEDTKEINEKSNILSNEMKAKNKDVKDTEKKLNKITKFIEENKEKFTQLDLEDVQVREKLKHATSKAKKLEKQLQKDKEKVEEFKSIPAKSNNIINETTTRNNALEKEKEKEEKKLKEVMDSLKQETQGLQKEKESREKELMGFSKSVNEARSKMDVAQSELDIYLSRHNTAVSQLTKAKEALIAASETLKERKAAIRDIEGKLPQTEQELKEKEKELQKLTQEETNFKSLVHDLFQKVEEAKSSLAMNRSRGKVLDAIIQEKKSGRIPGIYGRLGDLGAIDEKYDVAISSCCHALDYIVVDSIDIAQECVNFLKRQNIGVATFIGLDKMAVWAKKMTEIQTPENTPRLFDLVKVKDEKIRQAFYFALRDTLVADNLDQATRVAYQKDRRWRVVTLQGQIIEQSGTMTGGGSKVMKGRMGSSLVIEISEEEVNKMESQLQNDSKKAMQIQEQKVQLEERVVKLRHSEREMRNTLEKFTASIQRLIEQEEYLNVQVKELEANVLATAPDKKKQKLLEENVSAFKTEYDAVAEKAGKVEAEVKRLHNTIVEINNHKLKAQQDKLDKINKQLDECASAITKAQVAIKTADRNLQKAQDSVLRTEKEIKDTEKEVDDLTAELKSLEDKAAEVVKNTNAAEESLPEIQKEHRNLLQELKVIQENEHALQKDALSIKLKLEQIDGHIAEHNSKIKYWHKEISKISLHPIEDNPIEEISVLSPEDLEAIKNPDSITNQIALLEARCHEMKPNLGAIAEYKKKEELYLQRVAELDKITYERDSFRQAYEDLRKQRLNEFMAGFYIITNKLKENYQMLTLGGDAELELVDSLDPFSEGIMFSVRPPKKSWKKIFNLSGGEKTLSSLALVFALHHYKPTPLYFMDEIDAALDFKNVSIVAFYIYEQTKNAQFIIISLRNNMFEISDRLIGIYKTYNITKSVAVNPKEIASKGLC
# UniProt Q9NZD8: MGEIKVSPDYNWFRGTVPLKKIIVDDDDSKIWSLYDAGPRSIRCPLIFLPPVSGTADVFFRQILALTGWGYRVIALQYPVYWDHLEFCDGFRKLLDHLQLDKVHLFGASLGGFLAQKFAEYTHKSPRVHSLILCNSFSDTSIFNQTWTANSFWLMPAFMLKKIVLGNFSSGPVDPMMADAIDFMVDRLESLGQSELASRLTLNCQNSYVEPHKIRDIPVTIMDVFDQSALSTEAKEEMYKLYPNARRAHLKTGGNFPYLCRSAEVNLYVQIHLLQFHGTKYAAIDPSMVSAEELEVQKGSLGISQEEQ
# UniProt Q9NPL8: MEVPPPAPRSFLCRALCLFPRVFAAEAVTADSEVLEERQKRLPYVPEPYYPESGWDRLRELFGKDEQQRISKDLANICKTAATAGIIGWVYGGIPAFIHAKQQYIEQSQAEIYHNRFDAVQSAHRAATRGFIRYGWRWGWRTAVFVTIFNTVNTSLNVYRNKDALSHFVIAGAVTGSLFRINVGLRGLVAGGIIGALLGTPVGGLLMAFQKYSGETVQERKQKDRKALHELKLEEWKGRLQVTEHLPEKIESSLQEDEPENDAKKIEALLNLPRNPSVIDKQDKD
# UniProt Q9NUQ9: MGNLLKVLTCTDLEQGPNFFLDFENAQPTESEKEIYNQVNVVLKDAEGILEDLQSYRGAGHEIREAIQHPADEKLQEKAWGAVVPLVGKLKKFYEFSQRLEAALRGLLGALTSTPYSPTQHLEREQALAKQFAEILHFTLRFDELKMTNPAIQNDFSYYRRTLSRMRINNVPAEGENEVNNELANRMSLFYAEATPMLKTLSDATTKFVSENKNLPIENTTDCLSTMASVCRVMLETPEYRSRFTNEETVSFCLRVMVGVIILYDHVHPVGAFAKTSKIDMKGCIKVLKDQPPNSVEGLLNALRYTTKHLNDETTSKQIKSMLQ
# UniProt Q9NVV4: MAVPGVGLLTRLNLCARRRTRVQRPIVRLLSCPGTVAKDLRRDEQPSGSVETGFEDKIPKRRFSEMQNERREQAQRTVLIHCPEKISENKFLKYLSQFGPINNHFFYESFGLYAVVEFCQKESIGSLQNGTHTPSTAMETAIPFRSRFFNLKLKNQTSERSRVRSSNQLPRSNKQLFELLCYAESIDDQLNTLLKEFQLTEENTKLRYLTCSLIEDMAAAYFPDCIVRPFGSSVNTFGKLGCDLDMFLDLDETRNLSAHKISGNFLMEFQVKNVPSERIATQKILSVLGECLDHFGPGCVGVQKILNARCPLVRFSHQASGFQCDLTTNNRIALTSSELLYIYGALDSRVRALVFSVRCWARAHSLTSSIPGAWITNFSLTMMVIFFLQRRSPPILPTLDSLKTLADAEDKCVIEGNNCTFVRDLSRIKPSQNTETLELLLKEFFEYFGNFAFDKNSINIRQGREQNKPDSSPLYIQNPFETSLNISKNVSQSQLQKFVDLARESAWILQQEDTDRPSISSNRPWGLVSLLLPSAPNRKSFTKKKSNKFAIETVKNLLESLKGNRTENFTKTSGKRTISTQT
# UniProt Q9NYP9: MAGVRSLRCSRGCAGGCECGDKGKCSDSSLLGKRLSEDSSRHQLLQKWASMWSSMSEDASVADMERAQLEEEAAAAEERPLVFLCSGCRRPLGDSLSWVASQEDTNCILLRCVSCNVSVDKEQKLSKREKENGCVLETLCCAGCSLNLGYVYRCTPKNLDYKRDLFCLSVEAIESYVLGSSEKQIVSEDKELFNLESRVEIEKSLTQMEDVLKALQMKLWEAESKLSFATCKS
# UniProt Q9NUB1: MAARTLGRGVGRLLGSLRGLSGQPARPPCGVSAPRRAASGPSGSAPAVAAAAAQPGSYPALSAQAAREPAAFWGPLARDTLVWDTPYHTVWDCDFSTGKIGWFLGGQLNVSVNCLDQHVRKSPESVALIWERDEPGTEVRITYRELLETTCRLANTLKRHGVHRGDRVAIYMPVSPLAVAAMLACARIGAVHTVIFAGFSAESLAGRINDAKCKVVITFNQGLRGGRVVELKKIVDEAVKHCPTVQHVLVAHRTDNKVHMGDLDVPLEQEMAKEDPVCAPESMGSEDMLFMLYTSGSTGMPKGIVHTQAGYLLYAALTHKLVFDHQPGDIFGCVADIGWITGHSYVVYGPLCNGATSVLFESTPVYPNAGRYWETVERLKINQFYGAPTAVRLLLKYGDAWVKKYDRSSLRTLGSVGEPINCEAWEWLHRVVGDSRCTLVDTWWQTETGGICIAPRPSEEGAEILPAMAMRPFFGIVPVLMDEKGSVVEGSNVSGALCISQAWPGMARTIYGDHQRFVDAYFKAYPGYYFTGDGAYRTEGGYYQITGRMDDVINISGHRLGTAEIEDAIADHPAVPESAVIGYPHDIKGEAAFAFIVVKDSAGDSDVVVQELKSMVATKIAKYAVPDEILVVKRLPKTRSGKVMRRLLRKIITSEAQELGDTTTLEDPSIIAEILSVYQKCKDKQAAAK
# UniProt Q9NTM9: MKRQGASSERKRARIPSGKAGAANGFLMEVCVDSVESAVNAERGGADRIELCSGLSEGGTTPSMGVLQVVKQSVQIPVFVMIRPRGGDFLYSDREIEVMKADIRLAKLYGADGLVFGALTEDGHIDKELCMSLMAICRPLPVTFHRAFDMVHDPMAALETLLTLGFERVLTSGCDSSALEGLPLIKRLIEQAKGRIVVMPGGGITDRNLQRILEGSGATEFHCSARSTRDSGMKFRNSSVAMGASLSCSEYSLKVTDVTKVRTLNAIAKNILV
# UniProt Q9NVQ4: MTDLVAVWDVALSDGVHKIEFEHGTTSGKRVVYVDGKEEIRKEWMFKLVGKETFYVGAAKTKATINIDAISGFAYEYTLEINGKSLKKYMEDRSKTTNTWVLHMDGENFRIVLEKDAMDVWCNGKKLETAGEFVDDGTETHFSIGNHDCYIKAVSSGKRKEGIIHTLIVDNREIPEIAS
# UniProt Q9NWX6: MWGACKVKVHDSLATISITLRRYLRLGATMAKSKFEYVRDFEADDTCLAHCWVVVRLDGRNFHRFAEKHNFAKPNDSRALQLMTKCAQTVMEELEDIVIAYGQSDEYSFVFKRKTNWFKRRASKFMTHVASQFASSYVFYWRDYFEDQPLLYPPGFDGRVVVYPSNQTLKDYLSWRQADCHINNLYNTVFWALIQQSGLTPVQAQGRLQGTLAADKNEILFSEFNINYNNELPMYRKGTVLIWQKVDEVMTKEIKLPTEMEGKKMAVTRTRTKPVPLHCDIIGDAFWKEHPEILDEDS
# UniProt Q9NQZ5: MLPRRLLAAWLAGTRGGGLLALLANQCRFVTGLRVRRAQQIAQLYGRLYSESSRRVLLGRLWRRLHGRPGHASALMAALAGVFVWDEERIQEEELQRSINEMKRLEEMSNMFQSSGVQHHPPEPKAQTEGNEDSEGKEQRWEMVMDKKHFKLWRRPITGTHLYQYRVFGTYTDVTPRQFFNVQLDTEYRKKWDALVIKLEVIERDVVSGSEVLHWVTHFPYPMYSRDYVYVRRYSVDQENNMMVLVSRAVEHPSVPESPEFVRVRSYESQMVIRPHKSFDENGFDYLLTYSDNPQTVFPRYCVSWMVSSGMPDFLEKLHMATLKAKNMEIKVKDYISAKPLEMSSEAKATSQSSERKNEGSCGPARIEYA
# UniProt Q9NRX4: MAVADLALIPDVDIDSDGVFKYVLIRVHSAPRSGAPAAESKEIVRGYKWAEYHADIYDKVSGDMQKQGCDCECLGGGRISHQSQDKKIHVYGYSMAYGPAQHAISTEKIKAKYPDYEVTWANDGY
# UniProt Q9NPF2: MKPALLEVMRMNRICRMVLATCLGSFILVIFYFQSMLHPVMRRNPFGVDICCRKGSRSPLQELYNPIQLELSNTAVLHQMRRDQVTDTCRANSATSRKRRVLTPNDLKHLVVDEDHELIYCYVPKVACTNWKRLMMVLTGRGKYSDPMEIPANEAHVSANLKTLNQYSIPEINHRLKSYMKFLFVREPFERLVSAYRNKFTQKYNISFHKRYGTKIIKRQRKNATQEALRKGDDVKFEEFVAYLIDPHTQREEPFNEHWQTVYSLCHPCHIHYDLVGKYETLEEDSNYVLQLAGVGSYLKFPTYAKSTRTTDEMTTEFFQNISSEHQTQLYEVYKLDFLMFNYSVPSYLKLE
# UniProt Q9NRR5, whole entry: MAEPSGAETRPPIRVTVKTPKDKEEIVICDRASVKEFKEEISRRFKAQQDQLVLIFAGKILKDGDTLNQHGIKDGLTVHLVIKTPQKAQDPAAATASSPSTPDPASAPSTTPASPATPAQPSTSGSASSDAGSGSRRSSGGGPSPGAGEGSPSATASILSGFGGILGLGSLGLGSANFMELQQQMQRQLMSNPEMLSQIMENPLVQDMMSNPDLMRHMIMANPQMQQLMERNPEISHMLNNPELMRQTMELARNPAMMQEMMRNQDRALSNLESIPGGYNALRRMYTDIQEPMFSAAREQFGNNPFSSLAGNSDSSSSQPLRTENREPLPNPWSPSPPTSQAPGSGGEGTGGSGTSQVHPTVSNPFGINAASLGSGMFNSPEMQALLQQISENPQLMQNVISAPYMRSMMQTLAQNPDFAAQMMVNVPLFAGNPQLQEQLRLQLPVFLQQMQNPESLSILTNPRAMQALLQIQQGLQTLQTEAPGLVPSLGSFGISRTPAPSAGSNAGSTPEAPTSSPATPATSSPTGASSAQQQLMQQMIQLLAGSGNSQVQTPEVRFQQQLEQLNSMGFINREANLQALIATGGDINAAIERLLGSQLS
# UniProt Q9P0R6: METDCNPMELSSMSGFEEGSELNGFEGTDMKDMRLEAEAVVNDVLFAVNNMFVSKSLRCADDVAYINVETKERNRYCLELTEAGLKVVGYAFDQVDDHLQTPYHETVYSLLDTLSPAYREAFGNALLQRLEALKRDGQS
# UniProt Q9NRY5: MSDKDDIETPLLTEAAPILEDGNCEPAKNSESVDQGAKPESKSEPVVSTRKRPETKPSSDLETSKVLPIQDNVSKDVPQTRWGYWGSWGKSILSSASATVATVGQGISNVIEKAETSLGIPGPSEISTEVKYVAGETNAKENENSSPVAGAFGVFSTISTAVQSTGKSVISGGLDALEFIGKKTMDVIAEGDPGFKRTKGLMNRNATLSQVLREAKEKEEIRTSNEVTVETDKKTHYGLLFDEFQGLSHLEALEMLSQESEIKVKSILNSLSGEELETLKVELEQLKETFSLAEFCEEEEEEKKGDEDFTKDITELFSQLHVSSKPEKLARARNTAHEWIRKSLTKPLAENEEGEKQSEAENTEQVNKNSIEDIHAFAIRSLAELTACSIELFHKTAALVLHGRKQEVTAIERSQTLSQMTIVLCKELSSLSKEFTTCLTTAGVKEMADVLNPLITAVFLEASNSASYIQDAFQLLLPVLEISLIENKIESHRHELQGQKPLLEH
# Compound: Nc1ncnc2c1ncn2[C@@H]1O[C@H](COP(=O)(O)OP(=O)(O)OP(=O)(O)O)[C@@H](O)[C@H]1O [adenosine triphosphate]
# Test: NP40-soluble protein abundance relative to vehicle (solubility fold change) (ratio); higher = more soluble protein in presence of ATP
# Outline: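 Crude Jurkat lysate, prepared by Dounce homogenisation, was exposed to eight concentrations from 0.1 to 10 mM for 10 min at room temperature and then 3 min at 37 °C. Solubilisation used 0.8% NP40 with benzonase for 60 min at 4 °C, followed by ultracentrifugation and TMT labelling of the supernatant for LC-MS/MS. After vsn normalisation of intensities, each value is the fold change against the detergent-processed vehicle within each replicate, across three independent experiments.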
Target,NP40-soluble protein abundance (concentration: 1mM),NP40-soluble protein abundance (concentration: 2mM),NP40-soluble protein abundance (concentration: 4mM),NP40-soluble protein abundance (concentration: 6mM),NP40-soluble protein abundance (concentration: 8mM),NP40-soluble protein abundance (concentration: 10mM)
BAZ1A (UniProt Q9NRL2),1.11 ± 0.021,1.11 ± 0.019,1.11 ± 0.025,1.16 ± 0.051,1.15 ± 0.026,1.15 ± 0.038
SMC4 (UniProt Q9NTJ3),1.01 ± 0.033,0.9853 ± 0.0086,0.963 ± 0.016,1.01 ± 0.031,0.991 ± 0.029,0.984 ± 0.04
UniProt Q9P0U3 and related entries,1.04 ± 0.071,1.03 ± 0.15,1.03 ± 0.13,1.06 ± 0.19,1.06 ± 0.15,1.11 ± 0.17
UniProt Q9NUY8 and related entries,0.968 ± 0.011,1.03 ± 0.025,0.961 ± 0.037,1 ± 0.029,0.957 ± 0.051,0.98 ± 0.042
SMYD2 (UniProt Q9NRG4),1.09 ± 0.12,1.07 ± 0.063,1.09 ± 0.065,1.04 ± 0.082,1.12 ± 0.069,1.04 ± 0.063
UniProt Q9NZD8 and related entries,1.05 ± 0.06,1.03 ± 0.06,0.981 ± 0.024,0.945 ± 0.075,0.964 ± 0.035,0.975 ± 0.036
NECAP2 (UniProt Q9NVZ3),0.956 ± 0.025,0.969 ± 0.041,0.959 ± 0.025,0.961 ± 0.054,0.921 ± 0.027,0.959 ± 0.031
MRPL15 (UniProt Q9P015),1.13 ± 0.14,0.976 ± 0.11,0.938 ± 0.079,0.97 ± 0.28,0.967 ± 0.2,0.896 ± 0.14
UniProt Q9NRY4,0.994 ± 0.038,0.984 ± 0.021,1.02 ± 0.023,0.953 ± 0.06,0.997 ± 0.019,0.964 ± 0.036
GIMAP4 (UniProt Q9NUV9),1 ± 0.039,0.975 ± 0.059,0.944 ± 0.065,0.992 ± 0.09,0.967 ± 0.087,0.954 ± 0.074
UniProt Q9NPL8,0.988 ± 0.027,0.962 ± 0.02,0.948 ± 0.047,0.953 ± 0.015,0.968 ± 0.049,0.991 ± 0.035
UniProt Q9NUQ9 and related entries,0.948 ± 0.01,0.986 ± 0.044,0.937 ± 0.033,0.984 ± 0.033,0.932 ± 0.068,0.925 ± 0.08
CMTM6 (UniProt Q9NX76),0.9 ± 0.032,0.941 ± 0.048,0.907 ± 0.073,0.858 ± 0.039,0.898 ± 0.059,0.91 ± 0.024
CCDC88C (UniProt Q9P219),0.949 ± 0.026,0.955 ± 0.02,0.951 ± 0.022,0.977 ± 0.022,0.935 ± 0.012,0.923 ± 0.014
AVEN (UniProt Q9NQS1),0.797 ± 0.062,0.827 ± 0.025,0.845 ± 0.048,0.903 ± 0.092,0.884 ± 0.042,0.895 ± 0.032
UniProt Q9P1W8 and related entries,0.976 ± 0.022,1.03 ± 0.09,0.978 ± 0.026,0.9714 ± 0.0095,0.935 ± 0.027,0.936 ± 0.016
MTPAP (UniProt Q9NVV4),1.15 ± 0.014,1.28 ± 0.048,1.37 ± 0.029,1.52 ± 0.041,1.53 ± 0.018,1.57 ± 0.091
UniProt Q9NYP9,0.958 ± 0.022,0.94 ± 0.022,0.927 ± 0.037,0.984 ± 0.029,0.945 ± 0.029,0.931 ± 0.059
UBE2T (UniProt Q9NPD8),0.979 ± 0.076,0.98 ± 0.04,0.963 ± 0.032,1 ± 0.016,0.926 ± 0.036,0.893 ± 0.032
UniProt Q9NWY4,1 ± 0.071,0.992 ± 0.035,0.958 ± 0.067,0.94 ± 0.1,0.971 ± 0.082,0.971 ± 0.054
UniProt Q9NRL3 and related entries,1 ± 0.033,0.992 ± 0.026,0.96 ± 0.057,1.01 ± 0.086,0.985 ± 0.019,0.998 ± 0.073
UniProt Q9NUB1 and related entries,1.01 ± 0.07,1.01 ± 0.071,0.98 ± 0.073,0.94 ± 0.1,1.01 ± 0.069,0.989 ± 0.081
CUTC (UniProt Q9NTM9),0.967 ± 0.12,0.956 ± 0.086,0.952 ± 0.053,0.926 ± 0.12,0.952 ± 0.052,0.939 ± 0.05
UniProt Q9NVQ4 and related entries,1.1 ± 0.063,1.15 ± 0.24,1.11 ± 0.1,0.969 ± 0.065,1.04 ± 0.14,1.03 ± 0.031
UniProt Q9NWV8,0.945 ± 0.079,0.962 ± 0.039,0.925 ± 0.021,0.98 ± 0.042,0.939 ± 0.028,0.946 ± 0.0095

Target,NP40-soluble protein abundance (concentration: 1mM),NP40-soluble protein abundance (concentration: 2mM),NP40-soluble protein abundance (concentration: 4mM),NP40-soluble protein abundance (concentration: 6mM),NP40-soluble protein abundance (concentration: 8mM),NP40-soluble protein abundance (concentration: 10mM)
USE1 (UniProt Q9NZ43),0.95 ± 0.051,0.984 ± 0.014,0.986 ± 0.039,1.03 ± 0.08,0.987 ± 0.039,0.973 ± 0.027
ZDHHC18 (UniProt Q9NUE0),1.02 ± 0.12,1.02 ± 0.086,1.06 ± 0.12,1.05 ± 0.13,0.948 ± 0.11,0.984 ± 0.12
UniProt Q9NWU2,0.926 ± 0.12,0.823 ± 0.17,0.805 ± 0.068,0.872 ± 0.18,0.886 ± 0.067,0.731 ± 0.13
THG1L (UniProt Q9NWX6),1.09 ± 0.17,1.07 ± 0.086,1.09 ± 0.072,1 ± 0.055,1.08 ± 0.13,0.996 ± 0.18
UniProt Q9NSG2 and related entries,1.03 ± 0.031,0.994 ± 0.039,0.952 ± 0.025,1.04 ± 0.068,0.99 ± 0.087,1.01 ± 0.073
UniProt Q9NXN4 and related entries,0.96 ± 0.043,0.96 ± 0.049,0.975 ± 0.077,0.942 ± 0.11,0.938 ± 0.07,0.96 ± 0.063
TOMM22 (UniProt Q9NS69),0.946 ± 0.085,0.948 ± 0.048,0.9802 ± 0.005,1 ± 0.12,0.941 ± 0.01,0.858 ± 0.11
STARD7 (UniProt Q9NQZ5),0.952 ± 0.02,1.01 ± 0.073,0.913 ± 0.023,0.945 ± 0.086,0.92 ± 0.033,0.949 ± 0.035
PHPT1 (UniProt Q9NRX4),1.05 ± 0.087,0.9894 ± 0.0074,0.98 ± 0.027,0.999 ± 0.045,0.968 ± 0.037,0.949 ± 0.029
UniProt Q9NX55,0.976 ± 0.049,0.96 ± 0.021,0.923 ± 0.034,1.07 ± 0.05,0.969 ± 0.017,0.944 ± 0.041
UniProt Q9NPF2 and related entries,0.878 ± 0.076,0.9 ± 0.028,0.863 ± 0.017,0.909 ± 0.029,0.917 ± 0.088,0.916 ± 0.059
COMMD9 (UniProt Q9P000),0.997 ± 0.023,1 ± 0.015,0.997 ± 0.012,0.985 ± 0.049,0.959 ± 0.041,0.911 ± 0.034
TMEM30A (UniProt Q9NV96),0.926 ± 0.11,0.961 ± 0.073,0.94 ± 0.062,0.925 ± 0.14,0.865 ± 0.087,0.886 ± 0.073
UniProt Q9NYR9 and related entries,1.105 ± 0.0076,1.13 ± 0.031,1.11 ± 0.041,1.12 ± 0.055,1.067 ± 0.0084,1.08 ± 0.011
UBQLN4 (UniProt Q9NRR5),1 ± 0.013,1.02 ± 0.051,0.973 ± 0.032,1.01 ± 0.11,0.957 ± 0.035,0.91 ± 0.044
UniProt Q9NXH9 and related entries,1.01 ± 0.021,0.9884 ± 0.0048,0.973 ± 0.04,0.981 ± 0.015,0.978 ± 0.042,0.99 ± 0.011
UTP6 (UniProt Q9NYH9),1.01 ± 0.13,0.965 ± 0.089,1.03 ± 0.088,0.851 ± 0.2,0.994 ± 0.058,0.975 ± 0.0095
VPS18 (UniProt Q9P253),1.06 ± 0.056,1.03 ± 0.02,1.02 ± 0.051,1 ± 0.049,1.06 ± 0.048,1.01 ± 0.018
UniProt Q9NTX5 and related entries,0.94 ± 0.015,0.938 ± 0.038,0.931 ± 0.029,0.933 ± 0.036,0.93 ± 0.029,0.93 ± 0.034
UniProt Q9NVJ2,0.945 ± 0.15,0.963 ± 0.16,0.93 ± 0.091,0.891 ± 0.069,0.893 ± 0.056,0.914 ± 0.057
GTSE1 (UniProt Q9NYZ3),1.01 ± 0.12,1.03 ± 0.11,1.1 ± 0.14,1.06 ± 0.23,1.01 ± 0.091,1.06 ± 0.15
GSKIP (UniProt Q9P0R6),0.908 ± 0.12,0.961 ± 0.096,0.915 ± 0.063,0.943 ± 0.065,0.857 ± 0.035,0.842 ± 0.16
FAM114A2 (UniProt Q9NRY5),0.909 ± 0.072,0.943 ± 0.022,0.933 ± 0.026,0.97616 ± 0.00056,0.915 ± 0.026,0.925 ± 0.032
UniProt Q9NV56,0.972 ± 0.029,1 ± 0.038,1 ± 0.045,1.09 ± 0.067,1.01 ± 0.036,1.01 ± 0.021
INTS10 (UniProt Q9NVR2),1.1 ± 0.087,1.03 ± 0.046,1.08 ± 0.028,0.9775 ± 0.0049,1.07 ± 0.053,1.11 ± 0.067

# Exported with tabs: part of the list above
Target	NP40-soluble protein abundance (concentration: 1mM)	NP40-soluble protein abundance (concentration: 2mM)	NP40-soluble protein abundance (concentration: 4mM)	NP40-soluble protein abundance (concentration: 6mM)	NP40-soluble protein abundance (concentration: 8mM)	NP40-soluble protein abundance (concentration: 10mM)
TMEM30A (UniProt Q9NV96)	0.926 ± 0.11	0.961 ± 0.073	0.94 ± 0.062	0.925 ± 0.14	0.865 ± 0.087	0.886 ± 0.073
UniProt Q9NYR9 and related entries	1.105 ± 0.0076	1.13 ± 0.031	1.11 ± 0.041	1.12 ± 0.055	1.067 ± 0.0084	1.08 ± 0.011
UBQLN4 (UniProt Q9NRR5)	1 ± 0.013	1.02 ± 0.051	0.973 ± 0.032	1.01 ± 0.11	0.957 ± 0.035	0.91 ± 0.044
UniProt Q9NXH9 and related entries	1.01 ± 0.021	0.9884 ± 0.0048	0.973 ± 0.04	0.981 ± 0.015	0.978 ± 0.042	0.99 ± 0.011
UTP6 (UniProt Q9NYH9)	1.01 ± 0.13	0.965 ± 0.089	1.03 ± 0.088	0.851 ± 0.2	0.994 ± 0.058	0.975 ± 0.0095
VPS18 (UniProt Q9P253)	1.06 ± 0.056	1.03 ± 0.02	1.02 ± 0.051	1 ± 0.049	1.06 ± 0.048	1.01 ± 0.018
UniProt Q9NTX5 and related entries	0.94 ± 0.015	0.938 ± 0.038	0.931 ± 0.029	0.933 ± 0.036	0.93 ± 0.029	0.93 ± 0.034
UniProt Q9NVJ2	0.945 ± 0.15	0.963 ± 0.16	0.93 ± 0.091	0.891 ± 0.069	0.893 ± 0.056	0.914 ± 0.057
GTSE1 (UniProt Q9NYZ3)	1.01 ± 0.12	1.03 ± 0.11	1.1 ± 0.14	1.06 ± 0.23	1.01 ± 0.091	1.06 ± 0.15
GSKIP (UniProt Q9P0R6)	0.908 ± 0.12	0.961 ± 0.096	0.915 ± 0.063	0.943 ± 0.065	0.857 ± 0.035	0.842 ± 0.16
FAM114A2 (UniProt Q9NRY5)	0.909 ± 0.072	0.943 ± 0.022	0.933 ± 0.026	0.97616 ± 0.00056	0.915 ± 0.026	0.925 ± 0.032
UniProt Q9NV56	0.972 ± 0.029	1 ± 0.038	1 ± 0.045	1.09 ± 0.067	1.01 ± 0.036	1.01 ± 0.021
INTS10 (UniProt Q9NVR2)	1.1 ± 0.087	1.03 ± 0.046	1.08 ± 0.028	0.9775 ± 0.0049	1.07 ± 0.053	1.11 ± 0.067
